# The supplement of paper PMC10338343
# ± gives the standard deviation. Only a part is listed here, and it is no random draw. The uncertainty is large for many entries.
# Tested on: MIWI (PIWIL1) piRISC loaded with piRNA #1 (30 nt);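 further: 1 nM active piRISC with 0.1 nM target library at 33 °C single turnover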
# Experiment: pre-steady-state target cleavage rate (min^-1); higher = faster piRNA-guided slicing of the target
# Details: guide: piRNA #1 5'p-UGAGGUAGUAGGUUGUAUAGUAUCCAGAGG; auxiliary factor: 500 nM mouse GTSF1
# In short: (§1)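 Reactions were run for 0–8 or 0–960 min at 33 °C in HEPES–potassium acetate buffer, combining 1 nM active affinity-purified piRISC with one synthetic guide, […] transcribed, DNA-blocked target RNA library and, in some cases, 500 nM GTSF1 partner protein. Sequencing of uncleaved targets followed, with normalisation to depth and to weakly complementary targets. Three trials were pooled, k3 was capped at 0.0001 min^-1, and the pre-steady-state cleavage rate was taken from a burst-and-steady-state fit.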
row,Sequence,pre-steady-state target cleavage rate
1,GGAGACCUAUGAUAUGUUGGUCACUACCUCA,0.00121 ± 0.0044
2,GGAGACCUAUGAUUACUACCUACUACCUCA,0.000198 ± 0.012
3,GGAGACCUAUGAUAUGUUGGUUCUACGUCA,0.000459 ± 0.01
4,GGAGACCUAUGAUAACAACCUACGACCUCA,0.000263 ± 0.0085
5,GGAGACCUAUGAAAACAACCUACAACCUCA,0.000254 ± 0.0091
6,GGAGACCUAUGAAUACAAGCUACUACCACA,0.000336 ± 0.0056
7,GGAGACCUAUGAUUACAACCUACAUACCUCA,0.000816 ± 0.0041
8,GGAGACCUAUCUAUAGCAACCUACUACCUCA,0.00241 ± 0.0028
9,GGAGACCUAUGAUAACAAACUACUACCUCA,0.000366 ± 0.0064
10,GGAGACCUAACAAUACAACCUACUAGCUCA,0.00303 ± 0.0045
11,GGAGACCUAUGAUAACAAGCUAGUACCUCA,0.00079 ± 0.0049
12,GGAGACCUAUGAAGACAACCUACUACCUCA,0.00249 ± 0.0039
13,GGAGACCUAUGAUUACAACCUAAUACCUCA,0.000461 ± 0.0049
14,GGAGACCUAUGAAUACAACCGACUACCUCA,0.000511 ± 0.0071
15,GGAGACCUAUGUAUACUACCUACUACCACA,0.00194 ± 0.0027
16,GGAGACCUAUGAUAACAACCCACUACCUCA,0.00148 ± 0.0044
17,GGAGACCUAUGUAUACAACCUACAAGCUCA,0.00024 ± 0.0075
18,GGAGACCUAUGAUAUGUUUCUACUACCUCA,0.000394 ± 0.012
19,GGAGACCUAUGAUUAUCAACCUACUACCUCA,0.00146 ± 0.0025
20,GGAGACCUAUGUAUACAACGUACUACCUGA,0.00174 ± 0.0029

row,Sequence,pre-steady-state target cleavage rate
1,GGAGACCUAUGUAAACUACCUACUACCUCA,0.000252 ± 0.012
2,GGAGACCUAUGAUUACAACCUACUCCCUCA,0.000863 ± 0.0061
3,GGAGACCUAUGAUAACAACCUAAUACCUCA,0.000394 ± 0.0068
4,GGAGACCUAUGAUUACAAGCUACUAGCUCA,0.000839 ± 0.0082
5,GGAGACCUAUGAUAUGUUGGUUACUACCUCA,0.00103 ± 0.0046
6,GGAGACCAUACUAUACAACCUAUACCUCA,0.00163 ± 0.0044
7,GGAGACCUAUGAUUACAACACUACUACCUCA,0.000254 ± 0.01
8,GGAGACCUAUCAAUACAACCUACUUCCUCA,0.00175 ± 0.0041
9,GGAGACCUAUGAUAACAACCUACUACCUCA [g2:g16:cont:t1A],0.000918 ± 0.0081
10,GGAGAGGAUACUAUACAACCUCUACCUCA,0.00193 ± 0.0039
11,GGAGAGAUACUAUACAACCUACUACCUCA,1.89 ± 0.11
12,GGAGACCUAUGUUUACUACCUACUACCUCA,0.000624 ± 0.0049
13,GGAGACCUAUGAUAACAACCUACAACCUCA,0.000201 ± 0.012
14,GGAGACCUAUGUAAACAACCUAGUACCUCA,0.00189 ± 0.0025
15,GGAGACCAUACUAUACAACCUACUACCUUCA,1.59 ± 0.1
16,GGAGACCUAUGAUAUGUACAUACUACCUCA,0.001 ± 0.0059
17,GGAGACCAUACAAUACAACCUACUAGCUCA,0.486 ± 0.067
18,GGAGACCUAUGAAUACAACCUAUUACCUCA,0.000362 ± 0.0088
19,GGAGACCUAUGAUAACAACCUACUUCCUCA,0.000277 ± 0.0075
20,GGAGACCUAUGAUAUCAUGGUACUACCUCA,0.00045 ± 0.0046

# Tested on: EfPiwi piRISC loaded with piRNA #1 (26 nt)
# Experiment: pre-steady-state target cleavage rate (min^-1); guide: piRNA #1 5'p-UGAGGUAGUAGGUUGUAUAGUAUCCA; MIWI and MILI are mouse PIWI proteins and EfPiwi is from a freshwater sponge; tags in brackets are library labels; higher = faster piRNA-guided slicing of the target
# Details: auxiliary factor: 500 nM Ephydatia muelleri Gtsf1
# In short: as §1
row,Sequence,pre-steady-state target cleavage rate
1,GGAGACCUAUGAUAUGUUGGUCACUACCUCA,0.000162 ± 0.021
2,GGAGACCUAUGAUUACUACCUACUACCUCA,0.00129 ± 0.005
3,GGAGACCUAUGAUAUGUUGGUUCUACGUCA,0.000221 ± 0.0088
4,GGAGACCUAUGAUAACAACCUACGACCUCA,0.000206 ± 0.02
5,GGAGACCUAUGAAAACAACCUACAACCUCA,0.000541 ± 0.012
6,GGAGACCUAUGAAUACAAGCUACUACCACA,0.000154 ± 0.021
7,GGAGACCUAUGAUUACAACCUACAUACCUCA,0.000156 ± 0.016
8,GGAGACCUAUCUAUAGCAACCUACUACCUCA,0.00357 ± 0.0041
9,GGAGACCUAUGAUAACAAACUACUACCUCA,0.000338 ± 0.01
10,GGAGACCUAACAAUACAACCUACUAGCUCA,0.00157 ± 0.0058
11,GGAGACCUAUGAUAACAAGCUAGUACCUCA,0.00031 ± 0.011
12,GGAGACCUAUGAAGACAACCUACUACCUCA,0.00358 ± 0.0041
13,GGAGACCUAUGAUUACAACCUAAUACCUCA,0.0019 ± 0.0052
14,GGAGACCUAUGAAUACAACCGACUACCUCA,0.00106 ± 0.011
15,GGAGACCUAUGUAUACUACCUACUACCACA,0.000774 ± 0.013
16,GGAGACCUAUGAUAACAACCCACUACCUCA,0.000348 ± 0.014
17,GGAGACCUAUGUAUACAACCUACAAGCUCA,0.000143 ± 0.019
18,GGAGACCUAUGAUAUGUUUCUACUACCUCA,0.00168 ± 0.0034
19,GGAGACCUAUGAUUAUCAACCUACUACCUCA,0.000725 ± 0.01
20,GGAGACCUAUGUAUACAACGUACUACCUGA,0.00138 ± 0.0035

row,Sequence,pre-steady-state target cleavage rate
1,GGAGACCUAUGUAAACUACCUACUACCUCA,0.00077 ± 0.0074
2,GGAGACCUAUGAUUACAACCUACUCCCUCA,0.00156 ± 0.0039
3,GGAGACCUAUGAUAACAACCUAAUACCUCA,0.000163 ± 0.019
4,GGAGACCUAUGAUUACAAGCUACUAGCUCA,0.00233 ± 0.0048
5,GGAGACCUAUGAUAUGUUGGUUACUACCUCA,0.0006 ± 0.0054
6,GGAGACCAUACUAUACAACCUAUACCUCA,0.00351 ± 0.0036
7,GGAGACCUAUGAUUACAACACUACUACCUCA,0.00167 ± 0.0062
8,GGAGACCUAUCAAUACAACCUACUUCCUCA,0.00129 ± 0.0039
9,GGAGACCUAUGAUAACAACCUACUACCUCA [g2:g16:cont:t1A],0.00249 ± 0.0039
10,GGAGAGGAUACUAUACAACCUCUACCUCA,0.00619 ± 0.0034
11,GGAGAGAUACUAUACAACCUACUACCUCA,0.121 ± 0.054
12,GGAGACCUAUGUUUACUACCUACUACCUCA,0.000568 ± 0.0059
13,GGAGACCUAUGAUAACAACCUACAACCUCA,0.000818 ± 0.0088
14,GGAGACCUAUGUAAACAACCUAGUACCUCA,0.000981 ± 0.0083
15,GGAGACCAUACUAUACAACCUACUACCUUCA,0.0679 ± 0.02
16,GGAGACCUAUGAUAUGUACAUACUACCUCA,0.000419 ± 0.0058
17,GGAGACCAUACAAUACAACCUACUAGCUCA,0.00531 ± 0.0057
18,GGAGACCUAUGAAUACAACCUAUUACCUCA,0.00123 ± 0.0047
19,GGAGACCUAUGAUAACAACCUACUUCCUCA,0.000378 ± 0.0077
20,GGAGACCUAUGAUAUCAUGGUACUACCUCA,0.000828 ± 0.0074
